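Native S16 rat Schwann cells given compound for 24 h, with viability read as cellular ATP luminescence (CellTiter-Glo).
Each compound ran as a dilution series from about 0.00016 to 58 µM.
The number is the fitted AC50 potency for cell killing; a lower value means a more potent cytotoxic effect.
Calls follow curve class, fit quality (r2) and response size; inconclusive compounds get activity scores of 1 to 39, and these rows are all inconclusive.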

Values are in µM.
Every entry below has the call inconclusive.
Only part of the assay is shown, chiefly results filed as inconclusive.
A potency from a partial, single-point or poor curve is only a rough figure.
Some entries filed as inconclusive have a full curve.
The first word of each remark tells which way the curve ran; it can be opposite to the aim of the assay.
Activity scores are not listed here.

- CC(C)(C)[C@]1(O)CCN2CC3c4ccccc4CCc4cccc(c43)[C@@H]2C1 (some centres not stated) | fitted potency 40.53 µM (cytotoxic, single point)
- O=C(CS(=O)C(c1ccccc1)c1ccccc1)NO (configuration not stated) | fitted potency 0.002 µM (cytotoxic, full curve, poor fit)
- C=C1CC2C3C=C(C)C4=CC(=O)CCC4(C)C3CCC2(C)[C@@]1(OC(C)=O)C(C)=O (some centres not stated) | fitted potency 40.53 µM (cytotoxic, partial curve, poor fit)
- CC(C(O)c1ccc(O)cc1)N1CCC(Cc2ccccc2)CC1 (configuration not stated) | fitted potency 36.13 µM (cytotoxic, single point)
- CN1CCN(CCC(=O)N2c3ccccc3Sc3ccc(C(F)(F)F)cc32)CC1 | fitted potency 8.087 µM (cytotoxic, full curve)
- CN(C)C(=O)CCSC(SCCC(=O)O)c1cccc(/C=C/c2ccc3ccc(Cl)cc3n2)c1 (configuration not stated) | fitted potency 0.002 µM (cytotoxic, full curve, poor fit)
- C[C@](O)(CS(=O)(=O)c1ccc(F)cc1)C(=O)Nc1ccc(C#N)c(C(F)(F)F)c1 | fitted potency 28.7 µM (cytotoxic, partial curve)
- COCCOC(=O)C1=C(C)NC(C)=C(C(=O)OC/C=C/c2ccccc2)C1c1cccc([N+](=O)[O-])c1 (configuration not stated) | fitted potency 22.79 µM (cytotoxic, partial curve, poor fit)
- CCCCCc1ccc(C)cc1O | fitted potency 0.0102 µM (cytotoxic, full curve, poor fit)
- Cc1ccc2c(Br)cc(Br)c(O)c2n1 | fitted potency 40.53 µM (cytotoxic, single point)
- CC(=O)N/N=C/c1ccc([N+](=O)[O-])o1 | fitted potency 36.13 µM (cytotoxic, single point)
- C[C@H](N)[C@H](O)c1cccc(O)c1 | fitted potency 7.754 µM (rising, single point)
- Oc1c(Cl)cc(Cl)c2cccnc12 | fitted potency 40.53 µM (cytotoxic, partial curve, poor fit)
- CCN(CC)CCC(=O)N1c2ccccc2Sc2ccc(Cl)cc21 | fitted potency 28.7 µM (cytotoxic, partial curve)
- Nc1nc(Cl)nc2c1ncn2C1CC(O)C(CO)O1 (configuration not stated) | fitted potency 2.558 µM (rising, full curve, poor fit)
- CCC(C)CCCCC(=O)NC(CCN)C(=O)NC(C(=O)NC(CCN)C(=O)NC1CCNC(=O)C(C(C)O)NC(=O)C(CCN)NC(=O)C(CCN)NC(=O)C(CC(C)C)NC(=O)C(Cc2ccccc2)NC(=O)C(CCN)NC1=O)C(C)O (configuration not stated) | fitted potency 0.0102 µM (rising, full curve, poor fit)
- CN1CCN(C2Cc3ccccc3Sc3ccc(Cl)cc32)CC1 (configuration not stated) | fitted potency 16.14 µM (cytotoxic, partial curve, poor fit)
- CN(C)CCC=C1c2ccccc2C(C)(C)c2ccccc21 | fitted potency 36.13 µM (cytotoxic, single point)
- Cc1ccccc1N1C(=O)c2cc(N)ccc2N/C1=C\F | fitted potency 36.13 µM (cytotoxic, single point)
- CN1CCc2cc(Cl)c(O)cc2[C@H]2c3ccccc3CC[C@@H]21 | fitted potency 36.13 µM (cytotoxic, single point)
- C#C[C@]1(O)CC[C@H]2[C@H]3[C@H](CC[C@@]21C)C1=C(CC(=O)CC1)C[C@@H]3C | fitted potency 25.57 µM (cytotoxic, partial curve, poor fit)
- NC(CCC(=O)N[C@@H](CS)C(=O)NCC(=O)O)C(=O)O (some centres not stated) | fitted potency 0.0361 µM (rising, full curve, poor fit)
- CCN(CC)CCNC(=O)c1c(C)[nH]c(/C=C2\C(=O)Nc3ccc(F)cc32)c1C | fitted potency 32.2 µM (cytotoxic, partial curve, poor fit)
- CC(CN(C)C)CN1c2ccccc2Sc2ccc(C(F)(F)F)cc21 (configuration not stated) | fitted potency 25.57 µM (cytotoxic, partial curve)
- CC(=O)N[C@H](CC(C)C)C(=O)O | fitted potency 0.3613 µM (cytotoxic, full curve, poor fit)
- CCN(CC)C(=S)S | fitted potency 0.1438 µM (cytotoxic, full curve)
- CC(C)CCC[C@@H](C)[C@H]1CC[C@H]2[C@@H]3CC[C@@H]4C[C@H](O)CC[C@]4(C)[C@H]3CC[C@]12C | fitted potency 0.0573 µM (cytotoxic, full curve, poor fit)

For reference, 2 entries once more:

structure,fitted potency (µM),remark
CC(CN(C)C)CN1c2ccccc2Sc2ccc(C(F)(F)F)cc21 (configuration not stated),25.57,"cytotoxic, partial curve"
CCC(C)CCCCC(=O)NC(CCN)C(=O)NC(C(=O)NC(CCN)C(=O)NC1CCNC(=O)C(C(C)O)NC(=O)C(CCN)NC(=O)C(CCN)NC(=O)C(CC(C)C)NC(=O)C(Cc2ccccc2)NC(=O)C(CCN)NC1=O)C(C)O (configuration not stated),0.0102,"rising, full curve, poor fit"

Source: PubChem BioAssay AID624031 (NCATS, 2012).